# Experimental data published in PubChem BioAssay AID1259415 (National Center for Advancing Translational Sciences (NCATS), 2018).
# In all, about 410,000 compounds went through this assay and about 18,000 (4.4%) were called active. Inconclusive results, whose numbers are uncertain, are shown with a selection of clear calls. Cut-off read from the data, not from the text of the source: active = activity change below about -60%; inconclusive = no clear call, values can overlap the other calls; inactive = above about -39%.
# Assay: qHTS Assay for inhibitors of the human cytomegalovirus (HCMV)
# Conditions: HFF cells, HCMV-luciferase reporter, 72 h; at 57.5 µM; hits give low values
# Summary of the method: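 Cell-based, HFFs, 1000 cells/well, 16 h 37C; cpds in DMSO + HCMV-luc, MOI 1 PFU/cell; 72 h 37C; OneGlo luminescence after 5 min RT; norm. to buffer vs Salinomycin 10uM.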
# % is set by controls: 0 for no effect and ±100 for the full control effect.
row,Compound,"activity change, negative = inhibition"
1,CCOC(=O)c1c(NC(=O)Cn2cnc([N+](=O)[O-])n2)sc2c1CCCC2,inactive: -36.1%
2,CC(C)C(=O)Nc1cccc(-c2csc(-c3ccccc3)n2)c1,inconclusive: -48.8%
3,C=CCn1c(SCc2ccc(C#N)cc2)nnc1-c1cccc(OC)c1,active: -64.2%
4,Cc1ccc(C)c(N(C)C(=O)c2cc3c(=O)[nH]c4ccc(C)cc4c3s2)c1,inconclusive: -48.4%
5,Cc1ccc(NC(=O)COC(=O)c2nn(C)cc2Cl)cc1,inactive: -6.32%
6,COc1ccccc1C(=O)NCC1(N2CCN(C)CC2)CCCCC1,inconclusive: -49.7%
7,O=C(/C=C\c1ccc2c(c1)OCO2)NC1(C(=O)Nc2ccc3c(c2)OCCO3)CCCCC1,active: -87.5%
8,CCC1Sc2ccccc2N(CC(=O)NC2CC2)C1=O (stereo not drawn),inconclusive: -51.8%
9,Cc1ccccc1NC(=O)c1sc2nc(N3CCOCC3)c3c(c2c1N)CCCC3,inconclusive: -51.1%
10,CC1=Nc2cc(C(=O)NC3CCCC3)ccc2Sc2ccc(Br)cc21,active: -75.6%
11,COCCCNC(=O)C1CCCN(S(=O)(=O)c2ccc3c(c2)oc(=O)n3C)C1 (stereo not drawn),inactive: -4.44%
12,CCCc1cc(O)c2c(C)cc(=O)oc2c1,inactive: 12%
13,CCOc1cc(NC(=O)CCl)c(OCC)cc1NC(C)=O,inconclusive: -46.2%
14,CCOC(=O)C1=C(CN2CCN(C(=O)c3ccco3)CC2)NC(=O)NC1c1ccc(Cl)cc1 (stereo not drawn),inconclusive: -44%
15,Cc1ccccc1S(=O)(=O)NC(=O)C1(C)CCN1C(=O)C1(c2ccccc2)CCCC1 (stereo not drawn),inconclusive: -45.9%
16,CCN(CC)CCNC1=CC(=O)OC12CCCCC2,inconclusive: -49.5%
17,COc1ccc(NC(=O)c2ccc(-n3cncn3)c([N+](=O)[O-])c2)cc1,inactive: 3.77%
18,c1ccc(Cc2nn3c(-c4ccncc4)nnc3s2)cc1,inconclusive: -46.5%
19,CCOC(=O)c1c(-c2ccccc2)csc1NC(=O)COc1ccc2c(C)cc(=O)oc2c1,inconclusive: -42.3%
20,COC(=O)C(Cc1ccccc1)N1CCS(=O)(=O)CC1 (stereo not drawn),active: -69.5%
21,CCOc1ccc(NC(=O)C2CCCN2C(=O)NC2CCCCC2)cc1 (stereo not drawn),inconclusive: -53.4%
22,COC(=O)c1ccccc1NC(=O)C1CCN(S(=O)(=O)c2cc(C)ccc2OC)CC1,inconclusive: -47.3%

row,Compound,"activity change, negative = inhibition"
1,CC1(C)Cc2c(sc3nc(N/N=C/c4ccccc4)[nH]c(=O)c23)CO1,inconclusive: -55.4%
2,C/C=C\C=C/C(=O)Nc1cccc(C2=NOC3(C2)C[C@H](C(N)=O)N(C(=O)CC)C3)c1 (stereo partly drawn),inconclusive: -41.5%
3,Nc1cc(-c2ccc(Br)cc2)nn1Cc1ccccc1,active: -76.8%
4,Cc1cc(C)c2c(N=CN(C)C)c(C(=O)N3CCN(c4ncccn4)CC3)sc2n1,inactive: 11.4%
5,COc1ccc(NC(=O)c2ccc3[nH]c(C)c(C)c3c2)cc1,inconclusive: -45%
6,S=C(Nc1cc(Cl)ccc1Oc1ccccc1)N1CCN(c2ccccn2)CC1,active: -77.7%
7,CC(=O)Nc1cc[n+](C(C)C(=O)c2ccccc2)cc1 (stereo not drawn),inconclusive: -47.1%
8,CC(O)CNCCCOc1ccccc1OCc1ccccc1 (stereo not drawn),inconclusive: -58.7%
9,CC(=O)NC(=S)Nc1ccc(NC(=O)c2cccnc2Cl)cc1,inactive: 32.4%
10,O=C(Nc1cccnc1)Nc1ccccc1Cl,inactive: -21.5%
11,COc1cccc(-c2nc3c(C#N)c[nH]n3c2NC2CCCCC2)c1OC,inactive: -6.06%
12,COc1ccc(CCN(Cc2cccs2)S(=O)(=O)c2ccc(-n3cnnn3)cc2)cc1OC,inconclusive: -40.4%
13,CCN1CCN(C(=O)c2ccc(-c3nc4ccccc4s3)s2)CC1,inactive: -33%
14,COc1cccc(/C=N/NC(=O)c2[nH]nc3c2CCc2ccccc2-3)c1,inconclusive: -55.7%
15,CC(/C=C/c1ccccc1)=N\NC(=O)CNC(=O)c1ccccc1Cl,inactive: -17.3%
16,CCCCC(=O)N/N=C/c1c(O)n(-c2cccc3ccccc23)c(=O)[nH]c1=O,inconclusive: -45.7%
17,C[C@@H]1CN([C@@H](C)CO)C(=O)CCCn2nncc2CO[C@@H]1CN(C)C(=O)Nc1ccnc(N2CCOCC2)c1,inactive: -7.76%
18,CCN(CC(=O)Nc1ccc2c(c1)OC(F)(F)O2)Cc1nc2ccccc2c(=O)[nH]1,inconclusive: -43.1%
19,COc1ccc(NC(=O)N2CCc3c([nH]c4ccc(OC)cc34)C2c2ccc(OC)cc2)cc1 (stereo not drawn),inconclusive: -58%
20,COc1cccc(NC(=O)N2CCCC2C(=O)NCc2ccccc2F)c1 (stereo not drawn),inconclusive: -49.4%
21,CC1=C(C(=O)OCc2ccccc2)C(/C=C/c2ccccc2)N2C(=O)CCSC2=N1 (stereo not drawn),inconclusive: -45.1%
22,CC(=O)N1C[C@@H](CO)[C@@H](N(C)C(=O)C2CCCCC2)C[C@H]1c1ccccc1,inactive: 12.4%

row,Compound,"activity change, negative = inhibition"
1,CC1=C(C(=O)Nc2ccc(C)cc2C)C(c2ccc(C(C)C)cc2)n2nc(C(F)(F)F)nc2N1 (stereo not drawn),inactive: -34.2%
2,CC(=O)c1cccc(-c2ccc3c(c2)C(C)(Cc2ccccc2F)C(=O)N3)c1 (stereo not drawn),inconclusive: -44.6%
3,CN1CCc2cc(O)cc3c2[C@H]1Cc1ccc(O)c(O)c1-3,inconclusive: -49.9%
4,CCOC(=O)c1sc(NC(=O)c2nc(SC)ncc2Cl)c(C(=O)OCC)c1C,inactive: 6.43%
5,CCn1c(=O)c(C(=O)CN2CCN(S(=O)(=O)c3ccccc3)CC2)c(N)n(Cc2ccccc2)c1=O,inactive: -11.3%
6,COc1ccc(Cl)cc1N(C(C)C(=O)NC1CCCC1)S(C)(=O)=O (stereo not drawn),inconclusive: -40.6%
7,CCOc1ccc2c(c1)OC(c1ccccc1)(C(F)(F)F)NC2=O (stereo not drawn),inactive: 27.5%
8,CCOc1ccc(C(=O)NCC(=O)NCCSc2ccc(Br)cc2)cc1OCC,inactive: 29.4%
9,CC1(C)CC(NC(=O)c2cccc(S(=O)(=O)N(Cc3ccccc3)c3ccccc3)c2)CC(C)(C)N1,inactive: -17.5%
10,CN(C)c1nc2ccccc2n(C)c1=O,inconclusive: -50.3%
11,C#C[C@]1(O)CCC2C3C(=O)C=C4C=CCC[C@]4(C)C3CC[C@@]21C (stereo partly drawn),inconclusive: -54.1%
12,FC(F)Sc1ccc(NC(=S)NCC2CCCCC2)cc1,active: -96.7%
13,CC(=O)Nc1ccc(/C=C/c2nc(-c3ccccc3O)n[nH]2)cc1,inactive: 41.9%
14,C=CCn1c(=N)n(CC(=O)c2ccc(Br)s2)c2ccccc21,active: -74.1%
15,O=c1c2ccccc2ncn1CCOCCOc1ccc([N+](=O)[O-])cc1,inconclusive: -48.2%
16,C=CCn1cccc(C(=O)Nc2ccc(OCC)cc2)c1=O,active: -62.7%
17,Cn1cc[nH]c1=S,inconclusive: -46.1%
18,COC(=O)c1ccc(OC)c(CN2CCCN(Cc3cc(C)ccc3C)S2(=O)=O)c1,inconclusive: -50.7%
19,c1ccc(-c2nc(NC3CCCC3)c3ccccc3n2)cc1,inactive: 20.2%
20,C/C(=N\OCc1ccc(C#N)cc1)c1cc2ccccc2o1,inconclusive: 0%
21,COC(=O)CC1C(=O)NCCN1C(=O)c1ccc2oc(C(C)C)nc2c1 (stereo not drawn),inactive: -10.8%
22,COC(=O)c1ccc(CSc2nnc(C)s2)cc1,inactive: 69.2%

# An excerpt of these results, bar-delimited.
row | Compound | activity change, negative = inhibition
18 | c1ccc(Cc2nn3c(-c4ccncc4)nnc3s2)cc1 | inconclusive: -46.5%
19 | CCOC(=O)c1c(-c2ccccc2)csc1NC(=O)COc1ccc2c(C)cc(=O)oc2c1 | inconclusive: -42.3%
20 | COC(=O)C(Cc1ccccc1)N1CCS(=O)(=O)CC1 (stereo not drawn) | active: -69.5%
21 | CCOc1ccc(NC(=O)C2CCCN2C(=O)NC2CCCCC2)cc1 (stereo not drawn) | inconclusive: -53.4%
22 | COC(=O)c1ccccc1NC(=O)C1CCN(S(=O)(=O)c2cc(C)ccc2OC)CC1 | inconclusive: -47.3%
1 | CC1(C)Cc2c(sc3nc(N/N=C/c4ccccc4)[nH]c(=O)c23)CO1 | inconclusive: -55.4%

# The list goes on.

row,Compound,"activity change, negative = inhibition"
1,CCCCCCNCc1ccc(Br)cc1,inconclusive: -45.4%
2,O=C(/C=C/c1cccc(F)c1)Nc1cc(S(=O)(=O)N2CCOCC2)ccc1Cl,inconclusive: -40.8%
3,Cc1nn(C)cc1CNC(=O)Nc1cccc(Cl)c1,inactive: -7.54%
4,CCc1ccc(-c2csc(NC(=O)C3CC(=O)N(c4ccc5c(c4)OCCO5)C3)n2)cc1 (stereo not drawn),active: -84.3%
5,CC12CCC(c3n[nH]c(=S)nc31)C2(C)C (stereo not drawn),inconclusive: -53.7%
6,CCc1sc(C(=O)Nc2cc(Cl)ccc2N2CCCCC2)cc1C,active: -62.8%
7,Cc1cccc(-n2cc(CNCCN3CCOC3=O)c(-c3cccc(F)c3)n2)c1,inconclusive: -59.7%
8,O=C(Nc1cccc(Cl)c1)Nc1sccc1-c1nc2ccccc2s1,inactive: 13.7%
9,COc1ccc(NC(=O)Nc2cn(CC(C)C)c(=O)c3ccccc23)c(OC)c1,active: -104%
10,COCCn1c(SCC(=O)Nc2cc(C)cc(C)c2)nnc1C(C)C,inactive: 38%
11,Cc1cc(NC(=O)CSc2nnc(C)c(=O)n2N)no1,inconclusive: -43%
12,CN(c1ccc(C(=O)N2CCN(c3ccccc3F)CC2)cc1)S(=O)(=O)c1ccccc1,inactive: -24.4%
13,COc1ccc(C(C(=O)NCC2CCCO2)N(Cc2ccccc2)C(=O)CNC(=O)c2ccco2)cc1OC (stereo not drawn),inconclusive: -55.6%
14,COC(=O)c1c(NC(NC(=O)C(C)C)C(Cl)(Cl)Cl)sc2c1CCC2 (stereo not drawn),inconclusive: -55.4%
15,c1ccc(N2CCN(c3ncnc4c3nc3n4CCCC3)CC2)cc1,active: -68.2%
16,Cc1nnc(N2CCC(C(=O)NCc3ccc(N(C)C)cc3)CC2)c2nn(-c3ccccc3)c(C)c12,inconclusive: -58.3%
17,CCOC(=O)c1c(NC(=O)CC2SC(N)=NC2=O)sc2c1CCC(C)C2 (stereo not drawn),inactive: 6.46%
18,O=C(Nc1ccc(Cl)cc1Cl)c1cccc(N2C(=O)C=CC2=O)c1,active: -72.7%
19,O=C1COc2ccccc2N1Cc1ccccc1Cl,inconclusive: -47.8%
20,CSc1ccc(CN2C(=O)C(C)ON=C2c2ccccc2F)cc1 (stereo not drawn),active: -98.5%
21,Cc1cccc(C)c1NC(=O)Cn1c(CN2CCCCC2)nc2ccccc2c1=O,inactive: 17.3%
22,CCN(CC)S(=O)(=O)c1cc(C(=O)OCC(=O)Nc2ccc(-c3nc4ccc(C)cc4s3)cc2)ccc1F,inconclusive: -41.3%
